Experimental data from PubChem BioAssay AID1671190 (National Center for Advancing Translational Sciences (NCATS), 2021).
In all, about 580,000 compounds went through this assay and about 6,100 (1.1%) were called active. Inconclusive means that the source gave no clear call. Such entries were picked first, then a sample of the others. The call rests on the fitted dose curve; in most records, active means well fitted inhibition curve with a large enough effect; inconclusive means small, poorly fitted or top-dose-only effect, or another doubt; inactive means no such curve, though single readings can be large or run the other way. Potencies beside an inconclusive call are fits to weak or partial responses and may not hold up.

By UniProt entry, the sequences of proteins in these tests, tags left out. Where a name states a change or a piece, a line headed by the entry shows the natural chain unless it says otherwise.
UniProt P18054: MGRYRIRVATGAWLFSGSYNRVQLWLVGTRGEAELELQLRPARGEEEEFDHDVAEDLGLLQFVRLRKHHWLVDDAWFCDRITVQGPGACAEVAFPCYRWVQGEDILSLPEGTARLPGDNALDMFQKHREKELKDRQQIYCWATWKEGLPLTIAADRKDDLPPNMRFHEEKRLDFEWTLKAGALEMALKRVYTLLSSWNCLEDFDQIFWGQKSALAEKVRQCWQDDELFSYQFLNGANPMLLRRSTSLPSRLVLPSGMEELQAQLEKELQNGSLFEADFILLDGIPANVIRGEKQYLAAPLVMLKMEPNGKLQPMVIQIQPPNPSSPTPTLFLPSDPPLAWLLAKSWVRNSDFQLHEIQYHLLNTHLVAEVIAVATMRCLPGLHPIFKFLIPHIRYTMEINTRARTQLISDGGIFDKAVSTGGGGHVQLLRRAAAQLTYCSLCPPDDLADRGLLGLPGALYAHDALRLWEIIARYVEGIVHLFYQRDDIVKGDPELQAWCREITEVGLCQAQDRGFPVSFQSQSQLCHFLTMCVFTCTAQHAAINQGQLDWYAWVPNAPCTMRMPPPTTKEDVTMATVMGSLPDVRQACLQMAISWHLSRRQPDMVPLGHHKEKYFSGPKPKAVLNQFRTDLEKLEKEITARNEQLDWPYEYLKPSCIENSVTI

The compounds below were run against Polyunsaturated fatty acid lipoxygenase ALOX12 (Homo sapiens) (UniProt P18054) (assay: Primary qHTS assay for inhibitors of human arachidonate 12S-lipoxygenase (ALOX12): Round 2). Settings: purified 12hLO, xylenol orange hydroperoxide absorbance; activity change, negative = inhibition: at 108 µM (top of the series) unless noted.
Procedure, shortened: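 Hydroperoxide product was detected by ferrous iron/xylenol orange as the 573 to 405 nm absorbance ratio. Arachidonic acid at 40 uM (final) was turned over for 30 min at room temperature by 150 nM human 12hLO, pH 7.0 Hepes buffer, after 15 min compound preincubation.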
On the % scale 0 is the no-effect control and ±100 the full control effect; potency means the concentration at half of the fitted maximal effect.

| Compound | Potency | activity change, negative = inhibition |
| --- | --- | --- |
| O=C(CC1COCCN1)NCCc1nc(-c2ccccn2)no1 (stereo unspecified) | inconclusive: 11.2 µM [inhibitor, partial curve, poor fit] |  |
| O=C(O)CCc1cc(I)c(O)c(I)c1 | inactive |  |
| CCCCCCOc1ccc(C(=O)CCN(C)C)cc1 | active: 31.6 µM |  |
| Cc1ccc(NC(=O)CN(C)C(=O)c2cccc(S(=O)(=O)NCc3ccco3)c2)cc1 | inconclusive: 112 µM [inhibitor, single point] |  |
| COC(=O)C(N)(c1ccccc1)C(Nc1cccc(OC)c1)c1ccccc1 (stereo unspecified) | inconclusive: 31.6 µM [inhibitor, partial curve, poor fit] |  |
| O=C(NCCN1CCOCC1)C1CCN(Cc2ccccc2O)CC1 | inconclusive: 0.355 µM [inhibitor, full curve, poor fit] |  |
| CC1CCc2c(sc(N)c2C(N)=O)C1 (stereo unspecified) | inconclusive: 28.2 µM [inhibitor, partial curve] |  |
| Cc1nc(-c2ccc(F)cc2)n(CC(=O)Nc2ccc(F)cc2)c(=O)c1CCO | inconclusive: 31.6 µM [inhibitor, partial curve] |  |
| CN(CCC#N)S(=O)(=O)c1ccc(Br)cc1 | inconclusive: 56.2 µM [inhibitor, partial curve, poor fit] |  |
| O=C(N/C(=C/c1cccc(Br)c1)c1nc(=S)[nH][nH]1)c1ccccc1 | active: 35.5 µM |  |
| O=C(Nc1cccc(Cl)c1)C1C2C=CC3(O2)C1C(=O)N(CCCN1CCCCC1)C3C(=O)NC1CCCCC1 (stereo unspecified) | inactive |  |
| Cc1cccc(-c2nc(CCN(C)S(=O)(=O)c3cccc4nsnc34)no2)c1 | inconclusive: 56.2 µM [inhibitor, partial curve, poor fit] |  |
| CCCN(CC1CCOC1)S(=O)(=O)c1cccs1 (stereo unspecified) | inconclusive: 31.6 µM [inhibitor, partial curve, poor fit] |  |
| COc1ccc(Br)cc1CNC(=O)c1cnc2sc(N3CCC(C)CC3)nn2c1=O |  | inconclusive: -31.7% [inhibitor] |
| O=C(Nc1cc(C(F)(F)F)ccc1Cl)c1cc2nc3c(c(C(F)(F)F)n2n1)CCCC3 | inconclusive: 22.4 µM [inhibitor, partial curve, poor fit] |  |
| COc1cc(Cl)c(NC(=O)c2cc3ccccn3n2)c(OC)c1 |  | inconclusive: -33.9% [inhibitor] |
| O=C(NN=C(c1ccccc1)c1ccccc1)c1ccc[n+]([O-])c1 | inconclusive: 35.5 µM [inhibitor, partial curve, poor fit] |  |
| O=C(CCC(=O)c1cccs1)NCc1ccccc1Cl | inconclusive: 50.1 µM [inhibitor, partial curve, poor fit] |  |
| COc1ccc(Nc2nc(N3CCN(Cc4ccccc4)CC3)nc3nccnc23)cc1 | inconclusive: 44.7 µM [inhibitor, partial curve, poor fit] |  |
| CCCOc1ccc(C2C(C(=O)/C=C/c3ccco3)=C(O)C(=O)N2CCN2CCOCC2)cc1OC (stereo unspecified) | inconclusive: 50.1 µM [inhibitor, partial curve, poor fit] |  |
| O=c1ccc(NS(=O)(=O)c2ccccc2Cl)cn1Cc1ccc(Cl)c(Cl)c1 | inconclusive: 44.7 µM [inhibitor, partial curve, poor fit] |  |
| COc1ccc(OC)c(CN2CCN(c3ccccc3OC)CC2)c1 | inconclusive: 2.82 µM [inhibitor, full curve, poor fit] |  |

No new results follow: entries from further up.

| Compound | Potency | activity change, negative = inhibition |
| --- | --- | --- |
| COC(=O)C(N)(c1ccccc1)C(Nc1cccc(OC)c1)c1ccccc1 (stereo unspecified) | inconclusive: 31.6 µM [inhibitor, partial curve, poor fit] |  |
| O=C(NCCN1CCOCC1)C1CCN(Cc2ccccc2O)CC1 | inconclusive: 0.355 µM [inhibitor, full curve, poor fit] |  |
| CC1CCc2c(sc(N)c2C(N)=O)C1 (stereo unspecified) | inconclusive: 28.2 µM [inhibitor, partial curve] |  |
| Cc1nc(-c2ccc(F)cc2)n(CC(=O)Nc2ccc(F)cc2)c(=O)c1CCO | inconclusive: 31.6 µM [inhibitor, partial curve] |  |
| CN(CCC#N)S(=O)(=O)c1ccc(Br)cc1 | inconclusive: 56.2 µM [inhibitor, partial curve, poor fit] |  |

Continuation.

| Compound | Potency | activity change, negative = inhibition |
| --- | --- | --- |
| CN(C)CCNC(=O)c1ccc(-c2cnn(C)c2)c2ccoc12 | inconclusive: 89.1 µM [inhibitor, single point] |  |
| CC(C)CCCCCCCCc1cccc(O)c1C(=O)O | inconclusive: 44.7 µM [inhibitor, partial curve, poor fit] |  |
| CCn1cc(S(=O)(=O)N2C[C@@H](C(N)=O)[C@H](c3n[nH]c(C)n3)C2)cn1 | inconclusive: 89.1 µM [inhibitor, single point] |  |
| CCn1c2ccccc2c2cc(CNC34CC5CC(CC(C5)C3)C4)ccc21 | inconclusive: 79.4 µM [inhibitor, partial curve, poor fit] |  |
| O=C(CBr)Nc1c2c(nn1-c1ccccc1)CSC2 | inconclusive: 31.6 µM [inhibitor, partial curve, poor fit] |  |
| CCCCN | inactive |  |
| COc1cc2ncc3c(-c4ccc(C)cc4)nn(-c4ccc(F)cc4F)c3c2cc1OC | inconclusive: 89.1 µM [inhibitor, partial curve, poor fit] |  |
| C=CCn1c(=O)c2c(nc(-n3nc(CC)cc3CC)n2C)n(C)c1=O | inactive |  |
| Nn1c(Nc2ccccc2)nc2sc3c(c2c1=O)CCC3 | inconclusive: 22.4 µM [inhibitor, single point] |  |
| O=c1ccc2nc3ccccc3sc-2c1 | inconclusive: 22.4 µM [inhibitor, partial curve, poor fit] |  |
| O=C(CC1CCCC1)N1CCCC(Nc2cccc(F)c2)C1 (stereo unspecified) | inconclusive: 100 µM [inhibitor, partial curve, poor fit] |  |
| Cc1nn(CC(=O)c2cc(C)n(C3CC3)c2C)c(=O)c(C#N)c1C | inactive |  |
| CCOC(=O)N1CCC(Nc2c([N+](=O)[O-])cc(C(=O)O)cc2[N+](=O)[O-])CC1 | inconclusive: 50.1 µM [inhibitor, single point] |  |
| CCCN1C(=O)C(=O)c2cc(C)ccc21 | inactive |  |
| Cc1ccc(NC(=O)CN2C(=O)c3cccnc3Oc3ccc(Cl)cc32)cc1 | inconclusive: 100 µM [inhibitor, partial curve, poor fit] |  |
| COCCN1C(=O)CCC1(C)c1nnnn1Cc1ccccc1 (stereo unspecified) | inconclusive: 35.5 µM [inhibitor, single point] |  |
| CCOC(=O)c1c(CC(C)C)csc1N | inconclusive: 70.8 µM [inhibitor, partial curve, poor fit] |  |
| CCN(CC)C(=O)c1ccc(-c2nnc(OC)c3ccccc23)cc1 | inconclusive: 112 µM [inhibitor, partial curve, poor fit] |  |
| Clc1ccccc1CN1CCSCC1 | inconclusive: 1.58 µM [inhibitor, full curve, poor fit] |  |
| CNc1c(NS(=O)(=O)c2ccc(C(C)(C)C)cc2)c(=O)oc2ccccc12 | inconclusive: 126 µM [inhibitor, single point] |  |
| NS(=O)(=O)c1cccc(NC(=O)CCSc2ccc(Cl)cc2)c1 | inconclusive: 0.562 µM [inhibitor, full curve, poor fit] |  |
| Cc1ccn2c(Nc3ccc4c(c3)OCCO4)c(-c3ccc(C)o3)nc2c1 | inconclusive: 56.2 µM [inhibitor, partial curve, poor fit] |  |

| Compound | Potency | activity change, negative = inhibition |
| --- | --- | --- |
| CCc1c(C)nc(SCc2nc(-c3ccccc3C)oc2C)[nH]c1=O | inconclusive: 112 µM [inhibitor, single point] |  |
| O=[N+]([O-])c1ccccc1NC1CCN(Cc2ccccc2)CC1 | inconclusive: 79.4 µM [inhibitor, partial curve, poor fit] |  |
| CN1CCN(C(=O)C2=C[C@H](c3ccc(C(F)(F)F)cc3)C[C@H](OCCCCO)O2)CC1 | inconclusive: 0.794 µM [inhibitor, full curve, poor fit] |  |
| CCOC(=O)C(=O)NC1CC=CCC1c1ccc2c(c1)OCO2 (stereo unspecified) | inconclusive: 20 µM [inhibitor, full curve] |  |
| CCCCNC(=S)N(C)N | inconclusive: 22.4 µM [inhibitor, single point] |  |
| CCOc1cc(CN2CCN(C(=O)CC(C)C)CC2)ccc1OC | inconclusive: 0.316 µM [inhibitor, full curve, poor fit] |  |
| Clc1cccc(Cn2c(-c3cncs3)nc3ccccc32)c1 | inconclusive: 70.8 µM [inhibitor, partial curve, poor fit] |  |
| CC(=O)c1ccc(N=Nc2c(C)[nH][nH]c2=O)cc1 | inconclusive: 25.1 µM [inhibitor, partial curve, poor fit] |  |
| Cc1nc(-c2ccc(F)cc2)n(CC(=O)Nc2cccc(C(F)(F)F)c2)c(=O)c1CCO | inconclusive: 100 µM [inhibitor, single point] |  |
| COc1ccc(C(C)=O)cc1COC(=O)CCc1ccc2c(c1)OCO2 | inconclusive: 50.1 µM [inhibitor, partial curve, poor fit] |  |
| Cc1c(-c2ccccc2)nc2ccccc2c1-c1ccccc1 | inactive |  |
| COc1ccc(CN2C(=O)COC[C@H]2C(=O)NCc2ccc(Cl)cc2)cc1OC | inactive |  |
| CCNc1c(NC(=O)Nc2ccc(F)cc2)c(=O)oc2ccccc12 | inconclusive: 50.1 µM [inhibitor, partial curve, poor fit] |  |
| CC(=O)Oc1cccc2c1C(=O)C1CC=CC(OC(C)=O)C1C2=O (stereo unspecified) | inconclusive: 31.6 µM [inhibitor, single point] |  |
| CCOCCOC1CCN(C(=O)Nc2cccc(C)c2)CC1 | inactive |  |
| COc1ccccc1CNC(=O)Cc1c(C)nc2ccccc2c1C | inactive |  |
| COc1ccccc1Cc1c(C(C)(C)C)nc2cc(C)c(Br)c(C)n12 | inconclusive: 44.7 µM [inhibitor, partial curve, poor fit] |  |
| COCCCNC(=O)c1cc2cc(C)ccc2nc1C | inactive |  |
| O=C1c2ccccc2CCC1CNCCc1ccc(O)cc1 (stereo unspecified) | inactive |  |
| Cc1c(Cl)cccc1NC(=S)NCc1ccccc1Cl | inconclusive: 44.7 µM [inhibitor, partial curve, poor fit] |  |
| Cc1cc(Cl)ccc1S(=O)(=O)Nc1cccc(NC(N)=O)c1 | inconclusive: 35.5 µM [inhibitor, partial curve, poor fit] |  |
| CCc1ccc(-c2csc(NC3OC(=O)c4c3ccc(OC)c4OC)n2)cc1 (stereo unspecified) | inconclusive: 56.2 µM [inhibitor, partial curve, poor fit] |  |
